# In paper PMC2762494:
# The chains behind the UniProt entries cited, without tags or fusion partners.
# UniProt Q9Q8N5: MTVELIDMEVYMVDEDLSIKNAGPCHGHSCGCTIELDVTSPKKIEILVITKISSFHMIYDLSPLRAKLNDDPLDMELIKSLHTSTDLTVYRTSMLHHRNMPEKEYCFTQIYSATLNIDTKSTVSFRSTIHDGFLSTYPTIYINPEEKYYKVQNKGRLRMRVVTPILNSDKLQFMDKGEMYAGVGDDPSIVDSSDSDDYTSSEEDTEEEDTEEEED
# UniProt P19838: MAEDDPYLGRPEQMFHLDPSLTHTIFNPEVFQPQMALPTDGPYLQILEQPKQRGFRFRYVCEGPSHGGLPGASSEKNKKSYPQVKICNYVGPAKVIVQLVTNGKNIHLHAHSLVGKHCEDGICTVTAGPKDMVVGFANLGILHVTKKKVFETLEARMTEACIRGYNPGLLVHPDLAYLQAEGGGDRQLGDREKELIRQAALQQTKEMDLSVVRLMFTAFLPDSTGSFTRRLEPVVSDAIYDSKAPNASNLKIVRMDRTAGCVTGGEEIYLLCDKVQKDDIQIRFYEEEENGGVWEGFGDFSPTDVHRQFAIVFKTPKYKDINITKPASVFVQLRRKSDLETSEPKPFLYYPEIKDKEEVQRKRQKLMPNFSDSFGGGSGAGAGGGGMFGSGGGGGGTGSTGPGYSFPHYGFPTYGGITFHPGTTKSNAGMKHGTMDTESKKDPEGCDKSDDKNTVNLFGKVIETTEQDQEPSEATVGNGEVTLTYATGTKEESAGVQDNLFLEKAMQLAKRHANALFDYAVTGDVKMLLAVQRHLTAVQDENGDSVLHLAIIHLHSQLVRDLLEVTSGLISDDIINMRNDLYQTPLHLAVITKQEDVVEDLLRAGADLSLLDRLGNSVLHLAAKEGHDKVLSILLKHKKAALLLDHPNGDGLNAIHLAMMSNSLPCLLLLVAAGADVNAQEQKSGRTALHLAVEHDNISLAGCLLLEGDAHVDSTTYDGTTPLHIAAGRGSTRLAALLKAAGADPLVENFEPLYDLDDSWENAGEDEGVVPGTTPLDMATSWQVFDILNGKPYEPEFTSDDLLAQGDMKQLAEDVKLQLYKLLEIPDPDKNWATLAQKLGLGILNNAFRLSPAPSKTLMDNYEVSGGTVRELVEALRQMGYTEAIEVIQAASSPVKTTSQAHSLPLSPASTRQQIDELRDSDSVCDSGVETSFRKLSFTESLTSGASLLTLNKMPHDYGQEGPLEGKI
# No constants are given. Whether binding was seen depends on the method and setting.
# Target: GST-tagged M063 protein of myxoma virus (myxoma virus) (UniProt Q9Q8N5)
# Test: AlphaScreen or HTRF; lysates of co-transfected BSR T7/5 cells; anti-GST acceptor beads and Nickel Chelate donor beads; PBS with 0.1% BSA, room temperature
substance,measurement,value
Myc/His tagged human NF-κB1 p105 (from UniProt P19838 1-968),binding,no binding
